Reference: the supplement of paper PMC10338343
± gives the standard deviation. The list shows a part of the results. Many of these values have a large error.

tested on: EfPiwi piRISC loaded with L1MC piRNA (26 nt); experiment: pre-steady-state target cleavage rate (min^-1); guide: L1MC piRNA 5'p-UAACUAAAUACUAUGCAAGCUGUAGG; MIWI and MILI are mouse PIWI proteins and EfPiwi is from a freshwater sponge; tags in brackets are library labels; higher = faster piRNA-guided slicing of the target; details: auxiliary factor: 500 nM Ephydatia muelleri Gtsf1
Method: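 Cleave-'n-Seq: a library of target RNAs (target site in constant flanks) at […] was incubated with 1 nM active freshwater sponge Ephydatia fluviatilis Piwi piRISC (synthetic 5'-monophosphorylated piRNA guide) with or without 500 nM EmGtsf1 at 33 °C for 1 min to 16 h. Uncleaved targets were sequenced and the pooled three trials fitted to a burst-and-steady-state model to give the pre-steady-state cleavage rate (min^-1). Sequence is the target site only. Fits with R² ≤ 0 are excluded.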

| Sequence | pre-steady-state target cleavage rate |
| --- | --- |
| UCCUGGAUGUCGAACGUUAGUAUUUAGUGUA | 0.000525 ± 0.014 |
| UCCUGGAUGUCCUUGCAAAGUAUUUAGAUA | 0.000272 ± 0.021 |
| UCCUGGAUGUCCUUCGAUAGUAUUUAGUUA | 0.000374 ± 0.007 |
| UCCUGGAUGAGCUUGCAUAGAAUUUAGAAA | 0.00122 ± 0.0032 |
| UCCUGGAUGUGCUUGCAUAGUAAAAAGAAA | 0.00141 ± 0.0078 |
| UCCUGGAUGUCCUUGCAUAUGUAUUUAGUUA | 0.00151 ± 0.0067 |
| UCCUGCUACAGCUUGCAUAGAUUUAGUUA | 0.00286 ± 0.0015 |
| UCCUGGAUCAGCGUGCAUAGUAUUUAGUUA | 0.0619 ± 0.012 |
| UCCUGGAUGAGCUUGCAUAGAUAAAUCAAA [g11:g21:cont:t1A] | 0.000364 ± 0.0095 |
| UCCUGCUACAGCUUGCUAAGUAUUUAGUUA | 0.00353 ± 0.0029 |
| UCCUGGAUCAGCUUGGAUAGUAAUUAGUUA | 0.00256 ± 0.0025 |
| UCCUCCUACUCCUUGCAUAGUAUUUAGAAA | 0.00457 ± 0.0022 |
| UCCUGGAACAGCUUGCAUAGUAUAAAGAAA | 0.00217 ± 0.0021 |
| UCCUGGAUGAGCAUGCAAAGUAUUUAGUUA | 0.00414 ± 0.0036 |
| UCCUGGAUGUGCUUGCAUAGUGUUUAGUUA | 0.0123 ± 0.0051 |
| UCCUGGUACAGCUUGCAUAGUUAAAUCAAA [g10:g24:cont:t1A] | 0.000622 ± 0.0063 |
| UCCUGGAUGAGCUUGCAUAGUAUUUAGUUC [g2:g21:cont:t1C] | 0.039 ± 0.01 |
| UCCUGGUACAGCUUGCAUAGUAUUAAGAUA | 0.0058 ± 0.0028 |
| UCCUGGAUGUGCUACCAUAGUAUUUAGUAA | 0.00172 ± 0.0041 |
| UCCUGCUACACGCUUGCAUAGUAUUUAGUUA | 0.00609 ± 0.0019 |
| UCCUGGUACAGCUUGCAUAUUAUUUAGUUA | 0.00464 ± 0.0037 |
| UCCUGGAACAGCUAGCAUAGUAUUUUCAAA | 0.00177 ± 0.0037 |
| UCCUGGUACAGCUUGCAUAGUAUUUUCAUA | 0.00254 ± 0.0041 |
| UCCUGGAUGUCCUUGCAUAGUAUUUAGUCUA | 0.00301 ± 0.0024 |

same assay, conditions: auxiliary factor: none (no Gtsf1)

| Sequence | pre-steady-state target cleavage rate |
| --- | --- |
| UCCUGGAUGUCCUUGCAAAGUAUUUAGAUA | 0.000525 ± 0.012 |
| UCCUGGAUGUCCUUCGAUAGUAUUUAGUUA | < 0.0001 |
| UCCUGGAUGAGCUUGCAUAGAAUUUAGAAA | 0.000456 ± 0.013 |
| UCCUGGAUGUCCUUGCAUAUGUAUUUAGUUA | 0.000853 ± 0.0084 |
| UCCUGCUACAGCUUGCAUAGAUUUAGUUA | 0.000566 ± 0.011 |
| UCCUGGAUCAGCGUGCAUAGUAUUUAGUUA | 0.000618 ± 0.018 |
| UCCUGGAUGAGCUUGCAUAGAUAAAUCAAA [g11:g21:cont:t1A] | 0.000149 ± 0.046 |
| UCCUGGAUCAGCUUGGAUAGUAAUUAGUUA | 0.000125 ± 0.074 |
| UCCUGGAACAGCUUGCAUAGUAUAAAGAAA | 0.000294 ± 0.028 |
| UCCUGGUACAGCUUGCAUAGUUAAAUCAAA [g10:g24:cont:t1A] | 0.000114 ± 0.058 |
| UCCUGGUACAGCUUGCAUAGUAUUAAGAUA | 0.000706 ± 0.014 |
| UCCUGGAUGUGCUACCAUAGUAUUUAGUAA | 0.000519 ± 0.015 |
| UCCUGCUACACGCUUGCAUAGUAUUUAGUUA | 0.000517 ± 0.012 |
| UCCUGGAACAGCUAGCAUAGUAUUUUCAAA | 0.000132 ± 0.035 |
| UCCUGGUACAGCUUGCAUAGUAUUUUCAUA | 0.0012 ± 0.013 |
| UCCUGGAUGUCCUUGCAUAGUAUUUAGUCUA | 0.000312 ± 0.022 |
